Measurements reported in PubChem BioAssay AID1347076 (National Center for Advancing Translational Sciences (NCATS), 2019).
Among all 400,000 compounds or so, about 13,000 (3.2%) were called active. Inconclusive means that the source gave no clear call. Such entries were picked first, then a sample of the others. Calls follow the shape of the dose curve; as a rule, active = well fitted cell-killing curve with a large enough effect; inconclusive = small, poorly fitted or top-dose-only effect, or effect the other way; inactive = flat fitted curve, though single readings scatter. A potency beside an inconclusive call is a rough fit, not a confirmed value.

Assay: qHTS assay for MDR1-selective chemotherapeutics: Primary screen using the drug-selected MDR subline cells KB-V1; also: nearly all actives have a fitted effect of over 60% in size
Conditions: KB-V1 MDR cells viability, CellTiter-Glo, 72 h; activity change, negative = cytotoxicity: at 46.1 µM (top of the series)
Summary of the method: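 Readout: CellTiter-Glo luminescence, 10 min after addition. Cells: KB-V1 MDR subline, 72 h at 37 degrees C with compound. Analysis: corrected, normalized data fitted to concentration-effect curves.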
% is scaled to controls: 0 for no effect and ±100 for the full control effect; potency is read from the fitted curve at half-maximal effect.

Structure (SMILES)	Potency	activity change, negative = cytotoxicity
O=C1c2ccccc2C(=O)N1CCCN1C(=O)c2ccccc2C1=O	inconclusive: 20.6 µM [rising, single point]	–
COc1ccc(C(=O)c2sc(Nc3ccccc3)nc2N)cc1OC	active: 14.6 µM	–
CC(C)OCCCNc1ncc2c(n1)CC(c1ccccc1)CC2=O (configuration not stated)	inconclusive: 18.4 µM [cytotoxic, single point]	–
COc1ccccc1NC(=O)c1ccccc1-c1nc(-c2ccccc2OC)no1	inactive	–
COC(=O)c1ccc2c(c1)C(=O)/C(=C/c1ccc(O)cc1)O2	inactive	–
O=S1(=O)CC(N2CCCCC2)CN1Cc1cn(Cc2cccc(Cl)c2)nn1 (configuration not stated)	inactive	–
COc1ccccc1CN(CC(=O)NCc1ccco1)C(=O)CNS(=O)(=O)c1ccccc1	inconclusive: 32.6 µM [cytotoxic, partial curve, poor fit]	–
O=c1[nH]c2ccc(Cl)cc2c(=O)n1Cc1ccco1	inactive	–
O=C(c1c(F)cccc1F)N1CCC(n2nnc3cc(C(F)(F)F)ccc32)CC1	inconclusive: 16.4 µM [cytotoxic, partial curve]	–
Cc1ccc(S(=O)(=O)Nc2ccc(C(=O)N3CCOCC3)cc2)cc1	inactive	–
O=C(NCc1cccs1)c1cc2c(s1)-c1ccccc1OC2	inconclusive: 23.1 µM [cytotoxic, single point]	–
Cc1ccc(-c2cnc(NCc3c(F)cccc3Cl)n2C)cc1	inactive	–
COc1ccccc1NC(=O)Nc1nc(CC(=O)NCc2c(F)cccc2F)cs1	inconclusive: 18.4 µM [cytotoxic, single point]	–
Cc1ccc(C)c(C(C)NC(=S)NC2CCCCC2)c1 (configuration not stated)	inconclusive: 29.1 µM [cytotoxic, single point]	–
CCc1ccc(C2NC(=S)NC3=C2C(=O)N(c2ccccc2OC)C(c2ccc(CC)cc2)N3)cc1 (configuration not stated)	inconclusive: 29.1 µM [cytotoxic, single point]	–
CC(=O)Nc1ccc(Nc2nc(-c3cc4ccccc4oc3=O)cs2)cc1	inactive	–
COc1ccccc1N1CCN(S(=O)(=O)c2ccc(-n3cnnn3)cc2)CC1	inactive	–
CC1CCOC(c2coc3ccccc3c2=O)O1 (configuration not stated)	inconclusive: 14.6 µM [cytotoxic, single point]	–
O=C(COc1ccc2c(C(F)(F)F)cc(=O)oc2c1)Nc1ccc2c(c1)OCCO2	inactive	–
Cc1cc(C)n2nc(CNS(=O)(=O)c3ccc([N+](=O)[O-])cc3)nc2n1	–	inconclusive: 9.38%
CC(=O)NC(c1cccc(F)c1)c1nc(-c2cc(F)cc(Cl)c2)cs1 (configuration not stated)	inactive	–
Nc1cccc2c(=O)c3ccccc3[nH]c12	inconclusive: 20.6 µM [cytotoxic, single point]	–
O=C(CNC(=S)N(Cc1ccccc1F)C1CCCCC1)NCCN1CCOCC1	inconclusive: 18.4 µM [cytotoxic, partial curve, poor fit]	–
CC1(C(=O)O)CCC(C(=O)NNC(=O)c2ccccc2O)C1(C)C (configuration not stated)	inactive	–

3 entries from above, comma-delimited.
Structure (SMILES),Potency,"activity change, negative = cytotoxicity"
COc1ccccc1CN(CC(=O)NCc1ccco1)C(=O)CNS(=O)(=O)c1ccccc1,"inconclusive: 32.6 µM [cytotoxic, partial curve, poor fit]",–
O=c1[nH]c2ccc(Cl)cc2c(=O)n1Cc1ccco1,inactive,–
O=C(c1c(F)cccc1F)N1CCC(n2nnc3cc(C(F)(F)F)ccc32)CC1,"inconclusive: 16.4 µM [cytotoxic, partial curve]",–

Later entries

Structure (SMILES)	Potency	activity change, negative = cytotoxicity
CC(=O)Nc1cccc(NC(=O)Cc2csc(COc3cccc(C)c3)n2)c1	inconclusive: 23.1 µM [cytotoxic, single point]	–
COC(=O)c1cccc(Nc2nc3ccccc3nc2C)c1	inactive	–
Cc1ccc(C)c(S(=O)(=O)N2CCN(C(=O)c3ccc(-n4cncn4)c([N+](=O)[O-])c3)CC2)c1	inconclusive: 8.2 µM [cytotoxic, partial curve]	–
CCC(C(=O)Nc1cc(C)ccc1OC)n1nnc(C(=O)OC)c1C(=O)OC (configuration not stated)	inactive	–
COC(=O)C1=C(C(=O)OC)[C@@H]2Nc3ccccc3[C@@]23C[C@@H](C(=O)OC)N(C(=O)COCc2ccccc2)C3=N1	–	inconclusive: 25.4%
Cc1cc(C(C)(C)C)ccc1OCCn1ccnc1	inconclusive: 5.62 µM [cytotoxic, partial curve, poor fit]	–
O=C(NC1CCCC1)C(C1CC1)n1c(C2CCCC2)nc2ccccc21 (configuration not stated)	inconclusive: 6.51 µM [cytotoxic, partial curve]	–
CCc1ccc(S(=O)(=O)N(C(C)=O)c2ccc3oc4c(c3c2)CCCC4)cc1	inactive	–
O=C(NCCN1CCOCC1)c1ccc(CS(=O)(=O)c2ccc(Cl)cc2)o1	inconclusive: 18.4 µM [rising, single point]	–
C=CCNc1nc(NCCOc2ccccc2Cl)c2sc(-c3ccccc3)cc2n1	inconclusive: 29.1 µM [cytotoxic, single point]	–
COc1c(Cl)cc(C(=O)Nc2ccccc2C(=O)O)cc1Cl	inconclusive: 18.4 µM [cytotoxic, single point]	–
COc1ccc(NC(=O)CCNC(=O)Cn2cnc3sc4c(c3c2=O)CCCC4)c(OC)c1	inactive	–
O=C(NCCCN1CCCC1=O)c1ccc(Cl)c(NS(=O)(=O)c2ccc(F)cc2)c1	inconclusive: 20.6 µM [rising, single point]	–
CCOC(=O)C(=O)CC(=O)c1ccc2c(c1)OCCO2	inconclusive: 18.4 µM [rising, single point]	–
C=CCn1c(Cc2cccs2)nnc1SCC(=O)c1ccc(F)cc1	inactive	–
Cc1ccc(-n2nc3c(N4CCC(C(=O)N(C)Cc5ccccc5)CC4)nnc(C)c3c2C)cc1	inactive	–
Cc1ccc(C)c(S(=O)(=O)n2nc(C)c(S(=O)(=O)N3CCC(C)CC3)c2C)c1	inconclusive: 4.61 µM [rising, full curve]	–
COc1ccccc1S(=O)(=O)Cc1ccc(C(=O)NC2CC2)o1	inconclusive: 29.1 µM [rising, single point]	–
O=C(NCc1ccc2c(c1)OCO2)C1CCC(CNS(=O)(=O)c2cccc3nsnc23)CC1 (configuration not stated)	inconclusive: 18.4 µM [rising, single point]	–
CN1CCN(C(=O)c2cnn3c2NC(c2ccccc2)CC3C(F)(F)F)CC1 (configuration not stated)	inconclusive: 0.0052 µM [rising, full curve, poor fit]	–
O=C(Cn1cc(COc2cccc([N+](=O)[O-])c2)nn1)c1ccc(O)cc1	inactive	–
CC(=O)Nc1ccc(CN(C)c2c(C)nc3ccc(C(=O)N(C)Cc4ccco4)cn23)cc1	inactive	–
c1csc(Cc2nc(-c3ccc(-n4cccc4)cc3)no2)c1	inactive	–
Cc1cn([C@H]2C[C@H](O)[C@@H](CNCc3ccc4ncccc4c3)O2)c(=O)[nH]c1=O	inconclusive: 23.1 µM [cytotoxic, single point]	–

Structure (SMILES)	Potency	activity change, negative = cytotoxicity
CNc1n[nH]c(-c2ccccc2)n1	inactive	–
OC[C@@H]1[C@@H](c2ccc(F)cc2)C(c2ccccc2)=NN1c1ccccc1	inconclusive: 11.6 µM [cytotoxic, single point]	–
COc1ccc(NS(=O)(=O)c2cccc(C(=O)N/N=C(\C)c3ccncc3)c2)cc1	inconclusive: 5.8 µM [rising, full curve]	–
COc1ccc(-c2nnc(NC(=O)c3ccc4c(c3)OCCO4)o2)cc1	inactive	–
N=C1SCC(=O)N1c1ncc(Cc2ccccc2Cl)s1	inactive	–
CCC(CC)NCc1ccc2c(c1)c1ccccc1n2CC	inconclusive: 18.4 µM [cytotoxic, partial curve]	–
O=C(CNC(=S)N(CCCN1CCOCC1)Cc1cccs1)NCc1ccccc1	inactive	–
Cc1cccc(C(=O)O/N=C2\CCCc3ccccc32)c1	inconclusive: 10.3 µM [rising, partial curve, poor fit]	–
Cc1ccc(Cl)cc1NC(=S)N(CCCN1CCOCC1)Cc1ccco1	inconclusive: 8.2 µM [cytotoxic, partial curve]	–
O=C(Nc1ccc2c(c1)CCC2)c1cccs1	–	inconclusive: -36.2% [cytotoxic]
COC(=O)C(Cc1ccc(OC(=O)c2ccccc2Cl)cc1)N1Cc2ccccc2C1=O (configuration not stated)	inconclusive: 23.1 µM [cytotoxic, single point]	–
CCOc1ccc(N(CC(=O)N2CCOCC2)S(=O)(=O)c2ccc(SC)cc2)cc1	inconclusive: 7.31 µM [cytotoxic, partial curve]	–
COc1ccc(OC)c(S(=O)(=O)N2CCC(C(=O)N3CCN(Cc4ccccc4)CC3)CC2)c1	inconclusive: 23.1 µM [cytotoxic, single point]	–
C/C(=N/Nc1cc(-c2ccccc2)nc(-c2ccccc2)n1)c1ccc(O)cc1	active: 18.4 µM	–
CCOc1cccc(C(=O)Nc2nnc(-c3cccs3)s2)c1	inconclusive: 32.6 µM [rising, partial curve, poor fit]	–
CCC(C)(C)C1CCC2(CC1)NC(=O)N(CC(=O)NCCc1c[nH]c3ccccc13)C2=O (configuration not stated)	active: 20.6 µM	–
Cc1c(C(=O)OCC2CCCO2)[nH]c2c1C(=O)CC(c1ccc(N(C)C)cc1)C2 (configuration not stated)	active: 20.6 µM	–
O=C(Nc1cccnc1Cl)c1cccs1	inconclusive: 8.2 µM [rising, partial curve]	–
Cc1cc(C)c(-c2csc(Cc3nc(-c4cc5ccccc5oc4=O)cs3)n2)cc1C	inconclusive: 10.3 µM [cytotoxic, partial curve, poor fit]	–
Fc1ccc(-c2csc3ncnc(N4CCc5ccccc5C4)c23)cc1	inconclusive: 20.6 µM [cytotoxic, single point]	–
O=C(NCC1CCCN1S(=O)(=O)c1cccs1)c1ccc(Cl)cc1 (configuration not stated)	inconclusive: 18.4 µM [cytotoxic, partial curve]	–
COc1ccc(CC(=O)NCC2COc3ccccc3O2)cc1 (configuration not stated)	inconclusive: 29.1 µM [rising, single point]	–
Cc1nc2ccc(NC(=O)N3CCCCC3)cc2s1	inconclusive: 29.1 µM [cytotoxic, single point]	–
C/C(CC(=O)Nc1cccc(C(F)(F)F)c1)=N\NC(=O)C(=O)NCC(C)C	inconclusive: 0.0058 µM [rising, full curve, poor fit]	–

An excerpt from above in order of length of the SMILES, descending.
Structure (SMILES)	Potency	activity change, negative = cytotoxicity
CCC(C)(C)C1CCC2(CC1)NC(=O)N(CC(=O)NCCc1c[nH]c3ccccc13)C2=O (configuration not stated)	active: 20.6 µM	–
O=C(NCC1CCCN1S(=O)(=O)c1cccs1)c1ccc(Cl)cc1 (configuration not stated)	inconclusive: 18.4 µM [cytotoxic, partial curve]	–
O=C(Nc1ccc2c(c1)CCC2)c1cccs1	–	inconclusive: -36.2% [cytotoxic]
